Binding data for 4 molecules are collected here from publication PMC12343871.

By UniProt entry, the sequences of proteins in these tests, tags left out.
UniProt Q14258: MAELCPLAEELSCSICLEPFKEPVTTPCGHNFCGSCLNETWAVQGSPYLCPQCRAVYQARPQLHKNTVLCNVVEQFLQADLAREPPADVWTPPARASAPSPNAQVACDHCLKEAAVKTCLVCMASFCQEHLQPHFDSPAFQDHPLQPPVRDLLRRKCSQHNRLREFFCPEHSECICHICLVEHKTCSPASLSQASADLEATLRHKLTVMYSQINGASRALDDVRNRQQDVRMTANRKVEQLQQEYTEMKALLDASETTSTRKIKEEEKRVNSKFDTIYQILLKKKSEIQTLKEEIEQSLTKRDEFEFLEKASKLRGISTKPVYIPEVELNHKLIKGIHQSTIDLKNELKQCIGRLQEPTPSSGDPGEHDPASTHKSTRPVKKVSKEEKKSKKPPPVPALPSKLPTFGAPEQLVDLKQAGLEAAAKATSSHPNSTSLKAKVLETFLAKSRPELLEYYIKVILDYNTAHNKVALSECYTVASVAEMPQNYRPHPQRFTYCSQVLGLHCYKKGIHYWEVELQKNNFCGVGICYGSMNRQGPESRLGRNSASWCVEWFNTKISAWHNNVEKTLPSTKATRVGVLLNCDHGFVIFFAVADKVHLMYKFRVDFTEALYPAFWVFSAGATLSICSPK

These are yes or no findings as the source states them, for the method shown. Binding seen in cells or lysates may run through a third protein. Some results given as binding are weak or reduced against the parent protein; the word gives no strength. For some of these results: Where a sequence is shown, tags or fusion partners need not be part of it.

The target in assay [1] is Tripartite motif 25 (TRIM25) (human (endogenous in gastric cancer cells)) (UniProt Q14258). Nature of the assay: co-IP; cells lysed in NP-40 lysis buffer with protease inhibitors; lysate with anti-NLRP12 or anti-TRIM25 antibody (4 μg/mL) or control IgG, protein A/G beads, 4 °C for 3 h; Western blot; with and without overexpression of NLRP12 or TRIM25. Background: Immunoblotting shows a protein as a band on a membrane.

The target in assay [2] is myc-TRIM25^WT (human) (UniProt Q14258). Put plainly: co-IP; 293T cells cotransfected with TRIM25 or its truncations and flag-NLRP12 or His-HK2; IP and Western blot.

B1: NLR family pyrin domain containing 12 (NLRP12) (protein, UniProt P59046 1-1061)
chain: MLRTAGRDGLCRLSTYLEELEAVELKKFKLYLGTATELGEGKIPWGSMEKAGPLEMAQLLITHFGPEEAWRLALSTFERINRKDLWERGQREDLVRDTPPGGPSSLGNQSTCLLEVSLVTPRKDPQETYRDYVRRKFRLMEDRNARLGECVNLSHRYTRLLLVKEHSNPMQVQQQLLDTGRGHARTVGHQASPIKIETLFEPDEERPEPPRTVVMQGAAGIGKSMLAHKVMLDWADGKLFQGRFDYLFYINCREMNQSATECSMQDLIFSCWPEPSAPLQELIRVPERLLFIIDGFDELKPSFHDPQGPWCLCWEEKRPTELLLNSLIRKKLLPELSLLITTRPTALEKLHRLLEHPRHVEILGFSEAERKEYFYKYFHNAEQAGQVFNYVRDNEPLFTMCFVPLVCWVVCTCLQQQLEGGGLLRQTSRTTTAVYMLYLLSLMQPKPGAPRLQPPPNQRGLCSLAADGLWNQKILFEEQDLRKHGLDGEDVSAFLNMNIFQKDINCERYYSFIHLSFQEFFAAMYYILDEGEGGAGPDQDVTRLLTEYAFSERSFLALTSRFLFGLLNEETRSHLEKSLCWKVSPHIKMDLLQWIQSKAQSDGSTLQQGSLEFFSCLYEIQEEEFIQQALSHFQVIVVSNIASKMEHMVSSFCLKRCRSAQVLHLYGATYSADGEDRARCSAGAHTLLVQLPERTVLLDAYSEHLAAALCTNPNLIELSLYRNALGSRGVKLLCQGLRHPNCKLQNLRLKRCRISSSACEDLSAALIANKNLTRMDLSGNGVGFPGMMLLCEGLRHPQCRLQMIQLRKCQLESGACQEMASVLGTNPHLVELDLTGNALEDLGLRLLCQGLRHPVCRLRTLWLKICRLTAAACDELASTLSVNQSLRELDLSLNELGDLGVLLLCEGLRHPTCKLQTLRLGICRLGSAACEGLSVVLQANHNLRELDLSFNDLGDWGLWLLAEGLQHPACRLQKLWLDSCGLTAKACENLYFTLGINQTLTDLYLTNNALGDTGVRLLCKRLSHPGCKLRVLWLFGMDLNKMTHSRLAALRVTKPYLDIGC
In the case of B1, in assay [1], the binding result is given as “binds”.

B2: flag-NLRP12 (protein, UniProt P59046 1-1061)
chain: MLRTAGRDGLCRLSTYLEELEAVELKKFKLYLGTATELGEGKIPWGSMEKAGPLEMAQLLITHFGPEEAWRLALSTFERINRKDLWERGQREDLVRDTPPGGPSSLGNQSTCLLEVSLVTPRKDPQETYRDYVRRKFRLMEDRNARLGECVNLSHRYTRLLLVKEHSNPMQVQQQLLDTGRGHARTVGHQASPIKIETLFEPDEERPEPPRTVVMQGAAGIGKSMLAHKVMLDWADGKLFQGRFDYLFYINCREMNQSATECSMQDLIFSCWPEPSAPLQELIRVPERLLFIIDGFDELKPSFHDPQGPWCLCWEEKRPTELLLNSLIRKKLLPELSLLITTRPTALEKLHRLLEHPRHVEILGFSEAERKEYFYKYFHNAEQAGQVFNYVRDNEPLFTMCFVPLVCWVVCTCLQQQLEGGGLLRQTSRTTTAVYMLYLLSLMQPKPGAPRLQPPPNQRGLCSLAADGLWNQKILFEEQDLRKHGLDGEDVSAFLNMNIFQKDINCERYYSFIHLSFQEFFAAMYYILDEGEGGAGPDQDVTRLLTEYAFSERSFLALTSRFLFGLLNEETRSHLEKSLCWKVSPHIKMDLLQWIQSKAQSDGSTLQQGSLEFFSCLYEIQEEEFIQQALSHFQVIVVSNIASKMEHMVSSFCLKRCRSAQVLHLYGATYSADGEDRARCSAGAHTLLVQLPERTVLLDAYSEHLAAALCTNPNLIELSLYRNALGSRGVKLLCQGLRHPNCKLQNLRLKRCRISSSACEDLSAALIANKNLTRMDLSGNGVGFPGMMLLCEGLRHPQCRLQMIQLRKCQLESGACQEMASVLGTNPHLVELDLTGNALEDLGLRLLCQGLRHPVCRLRTLWLKICRLTAAACDELASTLSVNQSLRELDLSLNELGDLGVLLLCEGLRHPTCKLQTLRLGICRLGSAACEGLSVVLQANHNLRELDLSFNDLGDWGLWLLAEGLQHPACRLQKLWLDSCGLTAKACENLYFTLGINQTLTDLYLTNNALGDTGVRLLCKRLSHPGCKLRVLWLFGMDLNKMTHSRLAALRVTKPYLDIGC
For the molecule B2, the binding entry in assay [2] is reported as “binds”.

B3: Hexokinase 2 (HK2) (enzyme, UniProt P52789 1-917)
chain: MIASHLLAYFFTELNHDQVQKVDQYLYHMRLSDETLLEISKRFRKEMEKGLGATTHPTAAVKMLPTFVRSTPDGTEHGEFLALDLGGTNFRVLWVKVTDNGLQKVEMENQIYAIPEDIMRGSGTQLFDHIAECLANFMDKLQIKDKKLPLGFTFSFPCHQTKLDESFLVSWTKGFKSSGVEGRDVVALIRKAIQRRGDFDIDIVAVVNDTVGTMMTCGYDDHNCEIGLIVGTGSNACYMEEMRHIDMVEGDEGRMCINMEWGAFGDDGSLNDIRTEFDQEIDMGSLNPGKQLFEKMISGMYMGELVRLILVKMAKEELLFGGKLSPELLNTGRFETKDISDIEGEKDGIRKAREVLMRLGLDPTQEDCVATHRICQIVSTRSASLCAATLAAVLQRIKENKGEERLRSTIGVDGSVYKKHPHFAKRLHKTVRRLVPGCDVRFLRSEDGSGKGAAMVTAVAYRLADQHRARQKTLEHLQLSHDQLLEVKRRMKVEMERGLSKETHASAPVKMLPTYVCATPDGTEKGDFLALDLGGTNFRVLLVRVRNGKWGGVEMHNKIYAIPQEVMHGTGDELFDHIVQCIADFLEYMGMKGVSLPLGFTFSFPCQQNSLDESILLKWTKGFKASGCEGEDVVTLLKEAIHRREEFDLDVVAVVNDTVGTMMTCGFEDPHCEVGLIVGTGSNACYMEEMRNVELVEGEEGRMCVNMEWGAFGDNGCLDDFRTEFDVAVDELSLNPGKQRFEKMISGMYLGEIVRNILIDFTKRGLLFRGRISERLKTRGIFETKFLSQIESDCLALLQVRAILQHLGLESTCDDSIIVKEVCTVVARRAAQLCGAGMAAVVDRIRENRGLDALKVTVGVDGTLYKLHPHFAKVMHETVKDLAPKCDVSFLQSEDGSGKGAALITAVACRIREAGQR
In the case of B3, the binding entry in assay [1] was “binds”.

B4: His-HK2 (enzyme, UniProt P52789 1-917)
chain: MIASHLLAYFFTELNHDQVQKVDQYLYHMRLSDETLLEISKRFRKEMEKGLGATTHPTAAVKMLPTFVRSTPDGTEHGEFLALDLGGTNFRVLWVKVTDNGLQKVEMENQIYAIPEDIMRGSGTQLFDHIAECLANFMDKLQIKDKKLPLGFTFSFPCHQTKLDESFLVSWTKGFKSSGVEGRDVVALIRKAIQRRGDFDIDIVAVVNDTVGTMMTCGYDDHNCEIGLIVGTGSNACYMEEMRHIDMVEGDEGRMCINMEWGAFGDDGSLNDIRTEFDQEIDMGSLNPGKQLFEKMISGMYMGELVRLILVKMAKEELLFGGKLSPELLNTGRFETKDISDIEGEKDGIRKAREVLMRLGLDPTQEDCVATHRICQIVSTRSASLCAATLAAVLQRIKENKGEERLRSTIGVDGSVYKKHPHFAKRLHKTVRRLVPGCDVRFLRSEDGSGKGAAMVTAVAYRLADQHRARQKTLEHLQLSHDQLLEVKRRMKVEMERGLSKETHASAPVKMLPTYVCATPDGTEKGDFLALDLGGTNFRVLLVRVRNGKWGGVEMHNKIYAIPQEVMHGTGDELFDHIVQCIADFLEYMGMKGVSLPLGFTFSFPCQQNSLDESILLKWTKGFKASGCEGEDVVTLLKEAIHRREEFDLDVVAVVNDTVGTMMTCGFEDPHCEVGLIVGTGSNACYMEEMRNVELVEGEEGRMCVNMEWGAFGDNGCLDDFRTEFDVAVDELSLNPGKQRFEKMISGMYLGEIVRNILIDFTKRGLLFRGRISERLKTRGIFETKFLSQIESDCLALLQVRAILQHLGLESTCDDSIIVKEVCTVVARRAAQLCGAGMAAVVDRIRENRGLDALKVTVGVDGTLYKLHPHFAKVMHETVKDLAPKCDVSFLQSEDGSGKGAALITAVACRIREAGQR
As for B4, in assay [2], the binding entry is “binds”.
